Laboratory results: PubChem BioAssay AID1259254 (NCATS, 2017)

Screen: 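Gene knock-downs that lead to re-replication, shown by excess G2 DNA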 (primary screen)
System: human HCT116 colorectal cancer cells
Reagent: single siRNA against human genes
Duration: 3 days
Detection: 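Imaged Hoechst DNA stain sorts each cell into a cycle phase by DNA amount; per plate, G2 fraction set to 0% for non-targeting and 100% for GMNN siRNA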
Direction: G2 robust z-score and G2 cells, % of GMNN control: higher = more G2 cells, more excess DNA replication; raw share of cells in G2: higher = larger share of cells with G2 DNA content
Rule for the call: 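Active siRNAs have a G2 robust z of 5 or more median absolute deviations over the median, which in these data means about 38% or higher of GMNN control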
The whole screen tested about 59,000 reagents; this is an unselected part. Of all reagents, about 1,550 (2.6%) got an active call. 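G2 share is only a proxy for re-replication; each gene was hit by three separate siRNAs, and active genes were retested.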 The raw values are shown without normalisation. Reagents against one gene are numbered here. Not given: the amount of reagent.

gene knocked down | reagent | G2 robust z-score | G2 cells, % of GMNN control | raw share of cells in G2 (%) | activity call
MBLAC1 | 1 | 0.217 | 4.49 | 4.63 | inactive
MBLAC1 | 2 | 2.44 | 20.1 | 10.9 | inactive
MBLAC1 | 3 | 0.565 | 6.94 | 5.51 | inactive
IL1RN | 1 | -0.477 | -0.388 | 4.9 | inactive
IL1RN | 2 | -0.976 | -3.9 | 4.2 | inactive
IL1RN | 3 | -0.724 | -2.13 | 3.42 | inactive
NTF3 | 1 | 0.849 | 8.94 | 8.78 | inactive
NTF3 | 2 | -0.446 | -0.167 | 4.16 | inactive
NTF3 | 3 | 0.0622 | 3.4 | 4.58 | inactive
NDP | 1 | 0.568 | 6.97 | 7.94 | inactive
NDP | 2 | -0.45 | -0.196 | 4.14 | inactive
NDP | 3 | 0.128 | 3.87 | 4.75 | inactive
TOP6BL | 1 | 1.38 | 12.7 | 9.7 | inactive
TOP6BL | 2 | -0.741 | -2.25 | 3.32 | inactive
TOP6BL | 3 | 0.23 | 4.59 | 3.63 | inactive
PRSS44P | 1 | 0.798 | 8.58 | 7.47 | inactive
PRSS44P | 2 | 0.902 | 9.31 | 6.36 | inactive
PRSS44P | 3 | -0.455 | -0.233 | 3.09 | inactive
PRSS44P | 4 | -0.351 | 0.499 | 4.29 | inactive
PRSS44P | 5 | -0.244 | 1.25 | 3.64 | inactive
PRSS44P | 6 | 0.346 | 5.4 | 5.15 | inactive
KLC3 | 1 | 0.72 | 8.03 | 8.08 | inactive
KLC3 | 2 | -1.03 | -4.28 | 3.14 | inactive
KLC3 | 3 | 1.99 | 17 | 14 | inactive
SZT2 | 1 | -0.191 | 1.63 | 5.02 | inactive
SZT2 | 2 | -0.691 | -1.89 | 3.12 | inactive
SZT2 | 3 | -0.929 | -3.57 | 2.05 | inactive
SZT2 | 4 | 4.08 | 31.6 | 14.4 | inactive
SZT2 | 5 | 0.117 | 3.79 | 4.08 | inactive
SZT2 | 6 | 0.984 | 9.89 | 6.52 | inactive
MYH3 | 1 | 1.26 | 11.8 | 9.93 | inactive
MYH3 | 2 | -0.483 | -0.433 | 3.05 | inactive
MYH3 | 3 | -0.333 | 0.626 | 5.72 | inactive
HCST | 1 | 0.654 | 7.57 | 7.26 | inactive
HCST | 2 | -0.619 | -1.39 | 4.44 | inactive
HCST | 3 | 0.0396 | 3.25 | 4.39 | inactive
PDE1A | 1 | 0.42 | 5.92 | 6.72 | inactive
PDE1A | 2 | -1.12 | -4.89 | 2.83 | inactive
PDE1A | 3 | -0.433 | -0.081 | 3.47 | inactive
JMY | 1 | -0.914 | -3.46 | 2.87 | inactive
JMY | 2 | 0.0797 | 3.53 | 4.22 | inactive
JMY | 3 | 0.445 | 6.1 | 4.79 | inactive
CYBRD1 | 1 | -0.0633 | 2.52 | 6.48 | inactive
CYBRD1 | 2 | -0.782 | -2.53 | 3.28 | inactive
CYBRD1 | 3 | 0.0326 | 3.2 | 5.97 | inactive
CARD17P | 1 | 0.241 | 4.67 | 5.99 | inactive
CARD17P | 2 | 2.34 | 19.4 | 14.3 | inactive
CARD17P | 3 | 1.14 | 11 | 9.25 | inactive
OR4C46 | 1 | -0.37 | 0.361 | 4.24 | inactive
OR4C46 | 2 | 1.34 | 12.4 | 7.02 | inactive
OR4C46 | 3 | -0.733 | -2.19 | 1.18 | inactive
MAFA | 1 | -0.26 | 1.14 | 3.48 | inactive
MAFA | 2 | 1.44 | 13.1 | 7.71 | inactive
MAFA | 3 | -0.21 | 1.49 | 4.05 | inactive
SNRNP200 | 1 | 1.3 | 12.1 | 8.2 | inactive
SNRNP200 | 2 | 1.75 | 15.3 | 9.09 | inactive
SNRNP200 | 3 | 0.526 | 6.67 | 9.05 | inactive
RPS3AP49 | 1 | 0.709 | 7.96 | 8.09 | inactive
RPS3AP49 | 2 | -0.458 | -0.255 | 3.72 | inactive
RPS3AP49 | 3 | -0.151 | 1.91 | 4.27 | inactive
UBQLN3 | 1 | 0.0738 | 3.49 | 5.19 | inactive
UBQLN3 | 2 | 0.463 | 6.22 | 6.9 | inactive
UBQLN3 | 3 | -0.705 | -1.99 | 2.62 | inactive
ARGFX | 1 | 0.323 | 5.24 | 6.2 | inactive
ARGFX | 2 | 1.3 | 12.1 | 9.69 | inactive
ARGFX | 3 | 0.101 | 3.68 | 7.49 | inactive
DLK1 | 1 | 0.586 | 7.09 | 8.28 | inactive
DLK1 | 2 | 0.542 | 6.78 | 6.58 | inactive
DLK1 | 3 | 0.00844 | 3.03 | 4.42 | inactive
